PubChem BioAssay AID1224830 – NIAID – 2016
Purpose: 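Host factors that control LPS-induced TNF expression in human macrophages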 (primary screen). Cells: human THP-1 monocytic leukaemia cells, TNF dual-luciferase reporter clone, PMA-differentiated to macrophage-like cells. Knock-down reagent: siRNA pool against human genes, 50 nM. Time to read-out: LPS for 4 h, given about 3 days after siRNA transfection. Conditions: bacterial LPS (TLR4 ligand), 10 ng/ml. Measured: 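TNF firefly reporter luminescence divided by renilla, normalised to the plate median, then turned into a robust z-score for each replicate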. Scale: TNF reporter robust z-score: higher = stronger TNF reporter response to LPS. Rule for the call: 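Each well counts as active if its z-score is over 2.8 or under -1.5; controls are left without a call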.
The deposit covers about 18,000 reagents; shown is an unselected part. About 2,900 of them (16%) count as active. 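Calls are made per well; low scores hint the gene aids the LPS response, high scores that it dampens it.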 Repeated entries: four replicate wells of each siRNA pool.

gene symbol	PubChem SID	TNF reporter robust z-score	outcome
NXPE3 (neurexophilin and PC-esterase domain family member 3)	SID315460952	1.29	inactive
NXPE3 (neurexophilin and PC-esterase domain family member 3)	SID315460952	0.7	inactive
NXPE3 (neurexophilin and PC-esterase domain family member 3)	SID315460952	1.18	inactive
NXPE3 (neurexophilin and PC-esterase domain family member 3)	SID315460952	2.31	inactive
SERPINC1 (serpin family C member 1)	SID315447437	-0.41	inactive
SERPINC1 (serpin family C member 1)	SID315447437	0.28	inactive
SERPINC1 (serpin family C member 1)	SID315447437	0.03	inactive
SERPINC1 (serpin family C member 1)	SID315447437	-0.05	inactive
RAB38 (RAB38, member RAS oncogene family)	SID315455406		inactive
RAB38 (RAB38, member RAS oncogene family)	SID315455406	3.31	active
RAB38 (RAB38, member RAS oncogene family)	SID315455406	2.81	active
RAB38 (RAB38, member RAS oncogene family)	SID315455406	3.18	active
RAB38 (RAB38, member RAS oncogene family)	SID315455406	1.78	inactive
CDKL2 (cyclin dependent kinase like 2)	SID315452969	-0.9	inactive
CDKL2 (cyclin dependent kinase like 2)	SID315452969	0.93	inactive
CDKL2 (cyclin dependent kinase like 2)	SID315452969	-1.21	inactive
CDKL2 (cyclin dependent kinase like 2)	SID315452969	-0.67	inactive
ZNF765 (zinc finger protein 765)	SID315460936	0	inactive
ZNF765 (zinc finger protein 765)	SID315460936	-0.36	inactive
ZNF765 (zinc finger protein 765)	SID315460936	-0.15	inactive
ZNF765 (zinc finger protein 765)	SID315460936	-0.61	inactive
LNPEP (leucyl and cystinyl aminopeptidase)	SID315449789	1.21	inactive
LNPEP (leucyl and cystinyl aminopeptidase)	SID315449789	0.69	inactive
LNPEP (leucyl and cystinyl aminopeptidase)	SID315449789	1.61	inactive
LNPEP (leucyl and cystinyl aminopeptidase)	SID315449789	-0.46	inactive
TREM2 (triggering receptor expressed on myeloid cells 2)	SID315456978	-0.64	inactive
TREM2 (triggering receptor expressed on myeloid cells 2)	SID315456978	0.07	inactive
TREM2 (triggering receptor expressed on myeloid cells 2)	SID315456978	-0.31	inactive
TREM2 (triggering receptor expressed on myeloid cells 2)	SID315456978	1.12	inactive
ZZEF1 (zinc finger ZZ-type and EF-hand domain containing 1)	SID315455020	-0.2	inactive
ZZEF1 (zinc finger ZZ-type and EF-hand domain containing 1)	SID315455020	0.54	inactive
ZZEF1 (zinc finger ZZ-type and EF-hand domain containing 1)	SID315455020	0.88	inactive
ZZEF1 (zinc finger ZZ-type and EF-hand domain containing 1)	SID315455020	0.61	inactive
P3H3 (prolyl 3-hydroxylase 3)	SID315454170	0.29	inactive
P3H3 (prolyl 3-hydroxylase 3)	SID315454170	0.66	inactive
P3H3 (prolyl 3-hydroxylase 3)	SID315454170	0.73	inactive
P3H3 (prolyl 3-hydroxylase 3)	SID315454170	1.09	inactive
KMT2A (lysine methyltransferase 2A)	SID315449988	3.12	active
KMT2A (lysine methyltransferase 2A)	SID315449988	0.71	inactive
KMT2A (lysine methyltransferase 2A)	SID315449988	-0.8	inactive
KMT2A (lysine methyltransferase 2A)	SID315449988	4.31	active
TGFBR1 (transforming growth factor beta receptor 1)	SID315451853	-0.94	inactive
TGFBR1 (transforming growth factor beta receptor 1)	SID315451853	0.27	inactive
TGFBR1 (transforming growth factor beta receptor 1)	SID315451853	-0.62	inactive
TGFBR1 (transforming growth factor beta receptor 1)	SID315451853	-0.03	inactive
NT5DC3 (5'-nucleotidase domain containing 3)	SID315456779	0.11	inactive
NT5DC3 (5'-nucleotidase domain containing 3)	SID315456779	-0.25	inactive
NT5DC3 (5'-nucleotidase domain containing 3)	SID315456779	-0.26	inactive
NT5DC3 (5'-nucleotidase domain containing 3)	SID315456779	0.65	inactive
CCDC70 (coiled-coil domain containing 70)	SID315459992	0.15	inactive
CCDC70 (coiled-coil domain containing 70)	SID315459992	1.76	inactive
CCDC70 (coiled-coil domain containing 70)	SID315459992	0.79	inactive
CCDC70 (coiled-coil domain containing 70)	SID315459992	1.49	inactive
LRRTM2 (leucine rich repeat transmembrane neuronal 2)	SID315455635	1.49	inactive
LRRTM2 (leucine rich repeat transmembrane neuronal 2)	SID315455635	3.43	active
LRRTM2 (leucine rich repeat transmembrane neuronal 2)	SID315455635	1.21	inactive
LRRTM2 (leucine rich repeat transmembrane neuronal 2)	SID315455635	1.11	inactive
OR4N3P (olfactory receptor family 4 subfamily N member 3 pseudogene)	SID315465123	-1.03	inactive
OR4N3P (olfactory receptor family 4 subfamily N member 3 pseudogene)	SID315465123	0.2	inactive
OR4N3P (olfactory receptor family 4 subfamily N member 3 pseudogene)	SID315465123	-0.05	inactive
OR4N3P (olfactory receptor family 4 subfamily N member 3 pseudogene)	SID315465123	0.22	inactive
RSBN1 (round spermatid basic protein 1)	SID315457115	-0.35	inactive
RSBN1 (round spermatid basic protein 1)	SID315457115	1.22	inactive
RSBN1 (round spermatid basic protein 1)	SID315457115	-0.29	inactive
RSBN1 (round spermatid basic protein 1)	SID315457115	1.02	inactive
APOA5 (apolipoprotein A5)	SID315461383	-0.1	inactive
APOA5 (apolipoprotein A5)	SID315461383	2.91	active
APOA5 (apolipoprotein A5)	SID315461383	2.75	inactive
APOA5 (apolipoprotein A5)	SID315461383	1.66	inactive
VN1R10P (vomeronasal 1 receptor 10, pseudogene)	SID315460143	1.07	inactive
VN1R10P (vomeronasal 1 receptor 10, pseudogene)	SID315460143	1	inactive
VN1R10P (vomeronasal 1 receptor 10, pseudogene)	SID315460143	0.04	inactive
VN1R10P (vomeronasal 1 receptor 10, pseudogene)	SID315460143	0.64	inactive
NEDD4 (NEDD4 E3 ubiquitin protein ligase)	SID315450199	0.16	inactive
NEDD4 (NEDD4 E3 ubiquitin protein ligase)	SID315450199	-0.09	inactive
NEDD4 (NEDD4 E3 ubiquitin protein ligase)	SID315450199	-0.22	inactive
NEDD4 (NEDD4 E3 ubiquitin protein ligase)	SID315450199	-0.19	inactive
CIBAR2 (CBY1 interacting BAR domain containing 2)	SID315464014	1.04	inactive
CIBAR2 (CBY1 interacting BAR domain containing 2)	SID315464014	0.85	inactive
CIBAR2 (CBY1 interacting BAR domain containing 2)	SID315464014	0.29	inactive
CIBAR2 (CBY1 interacting BAR domain containing 2)	SID315464014	0.56	inactive
DAP3 (death associated protein 3)	SID315452316	0.57	inactive
DAP3 (death associated protein 3)	SID315452316	0.23	inactive
DAP3 (death associated protein 3)	SID315452316	0.45	inactive
DAP3 (death associated protein 3)	SID315452316	-0.42	inactive
CBFA2T3 (CBFA2/RUNX1 partner transcriptional co-repressor 3)	SID315447721	-0.56	inactive
CBFA2T3 (CBFA2/RUNX1 partner transcriptional co-repressor 3)	SID315447721	0.45	inactive
CBFA2T3 (CBFA2/RUNX1 partner transcriptional co-repressor 3)	SID315447721	-0.27	inactive
CBFA2T3 (CBFA2/RUNX1 partner transcriptional co-repressor 3)	SID315447721	0.73	inactive
IPO8 (importin 8)	SID315454162	-0.22	inactive
IPO8 (importin 8)	SID315454162	0.01	inactive
IPO8 (importin 8)	SID315454162	0.84	inactive
IPO8 (importin 8)	SID315454162	-0.54	inactive
TNFSF18 (TNF superfamily member 18)	SID315452966	1.2	inactive
TNFSF18 (TNF superfamily member 18)	SID315452966	-0.81	inactive
TNFSF18 (TNF superfamily member 18)	SID315452966	-0.64	inactive
TNFSF18 (TNF superfamily member 18)	SID315452966	0.43	inactive
FZD3 (frizzled class receptor 3)	SID315452359	2.43	inactive
FZD3 (frizzled class receptor 3)	SID315452359	1.8	inactive
FZD3 (frizzled class receptor 3)	SID315452359	2.38	inactive
FZD3 (frizzled class receptor 3)	SID315452359	2.2	inactive
NOS1 (nitric oxide synthase 1)	SID315450272	0.72	inactive
NOS1 (nitric oxide synthase 1)	SID315450272	1.59	inactive
NOS1 (nitric oxide synthase 1)	SID315450272	1.06	inactive
NOS1 (nitric oxide synthase 1)	SID315450272	0.82	inactive
EEF1B2 (eukaryotic translation elongation factor 1 beta 2)	SID315448442	0.21	inactive
EEF1B2 (eukaryotic translation elongation factor 1 beta 2)	SID315448442	-0.13	inactive
EEF1B2 (eukaryotic translation elongation factor 1 beta 2)	SID315448442	0.38	inactive
EEF1B2 (eukaryotic translation elongation factor 1 beta 2)	SID315448442	0.56	inactive
PPARD (peroxisome proliferator activated receptor delta)	SID315450721	0.65	inactive
PPARD (peroxisome proliferator activated receptor delta)	SID315450721	-0.58	inactive
PPARD (peroxisome proliferator activated receptor delta)	SID315450721	-0.54	inactive
PPARD (peroxisome proliferator activated receptor delta)	SID315450721	0.53	inactive
GAR1 (GAR1 ribonucleoprotein)	SID315456999	0.25	inactive
GAR1 (GAR1 ribonucleoprotein)	SID315456999	-0.24	inactive
GAR1 (GAR1 ribonucleoprotein)	SID315456999	0.09	inactive
GAR1 (GAR1 ribonucleoprotein)	SID315456999	1.62	inactive
TASP1 (taspase 1)	SID315457718	-0.84	inactive
TASP1 (taspase 1)	SID315457718	-0.23	inactive
TASP1 (taspase 1)	SID315457718	-1.56	active
TASP1 (taspase 1)	SID315457718	0.94	inactive
SMARCA2	SID315451524	0.45	inactive
SMARCA2	SID315451524	0.55	inactive
SMARCA2	SID315451524	-0.39	inactive
SMARCA2	SID315451524	0.02	inactive
SMS (spermine synthase)	SID315451539	0.82	inactive
SMS (spermine synthase)	SID315451539	1.06	inactive
SMS (spermine synthase)	SID315451539	1.2	inactive
SMS (spermine synthase)	SID315451539	1.82	inactive
SNUPN (snurportin 1)	SID315453796	-0.69	inactive
SNUPN (snurportin 1)	SID315453796	-0.75	inactive
SNUPN (snurportin 1)	SID315453796	-0.38	inactive
SNUPN (snurportin 1)	SID315453796	-0.36	inactive
REG3A (regenerating family member 3 alpha)	SID315450422	-0.84	inactive
REG3A (regenerating family member 3 alpha)	SID315450422	-0.47	inactive
REG3A (regenerating family member 3 alpha)	SID315450422	-0.85	inactive
REG3A (regenerating family member 3 alpha)	SID315450422	-0.34	inactive
ANAPC11 (anaphase promoting complex subunit 11)	SID315456761	0.88	inactive
ANAPC11 (anaphase promoting complex subunit 11)	SID315456761	-0.88	inactive
ANAPC11 (anaphase promoting complex subunit 11)	SID315456761	-0.68	inactive
ANAPC11 (anaphase promoting complex subunit 11)	SID315456761	0.8	inactive

Reformatted: entries from further up.
gene symbol,PubChem SID,TNF reporter robust z-score,outcome
CIBAR2 (CBY1 interacting BAR domain containing 2),SID315464014,0.85,inactive
CIBAR2 (CBY1 interacting BAR domain containing 2),SID315464014,0.29,inactive
CIBAR2 (CBY1 interacting BAR domain containing 2),SID315464014,0.56,inactive
DAP3 (death associated protein 3),SID315452316,0.57,inactive
DAP3 (death associated protein 3),SID315452316,0.23,inactive
DAP3 (death associated protein 3),SID315452316,0.45,inactive
DAP3 (death associated protein 3),SID315452316,-0.42,inactive
CBFA2T3 (CBFA2/RUNX1 partner transcriptional co-repressor 3),SID315447721,-0.56,inactive
CBFA2T3 (CBFA2/RUNX1 partner transcriptional co-repressor 3),SID315447721,0.45,inactive
CBFA2T3 (CBFA2/RUNX1 partner transcriptional co-repressor 3),SID315447721,-0.27,inactive
CBFA2T3 (CBFA2/RUNX1 partner transcriptional co-repressor 3),SID315447721,0.73,inactive
IPO8 (importin 8),SID315454162,-0.22,inactive
IPO8 (importin 8),SID315454162,0.01,inactive
IPO8 (importin 8),SID315454162,0.84,inactive
IPO8 (importin 8),SID315454162,-0.54,inactive
TNFSF18 (TNF superfamily member 18),SID315452966,1.2,inactive
